Results reported in article PMC6713331.
No constants are given. Whether binding was seen depends on the method and setting. In cells and extracts the contact can be indirect. Some binding calls cover weakened binding; strength is not graded here.

Chains of the proteins cited; added tags and fusions are not shown.
UniProt P03220: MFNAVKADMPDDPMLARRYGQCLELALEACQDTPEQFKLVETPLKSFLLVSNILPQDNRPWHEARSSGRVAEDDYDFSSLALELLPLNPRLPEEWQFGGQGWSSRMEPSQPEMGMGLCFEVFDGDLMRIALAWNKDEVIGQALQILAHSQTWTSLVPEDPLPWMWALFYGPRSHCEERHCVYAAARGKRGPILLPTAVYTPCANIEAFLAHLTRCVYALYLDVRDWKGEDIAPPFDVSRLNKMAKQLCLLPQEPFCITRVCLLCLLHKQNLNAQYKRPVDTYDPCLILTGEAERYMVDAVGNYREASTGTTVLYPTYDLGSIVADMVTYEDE

What was measured:
[1] = target: FLAG-tagged BGLF3 (wild type) (Epstein-Barr virus) (UniProt P03220); experiment: co-IP; FLAG-tagged BGLF3 or BGLF3(T42A) as bait with BFRF2 and BVLF1 co-expressed together in 2089 cells; anti-FLAG M2 agarose, 2 h, 4 C; eluted with 3X FLAG peptide; anti-Myc blot
[2] = target: FLAG-tagged BGLF3 (wild type) (Epstein-Barr virus) (UniProt P03220); experiment: co-IP; FLAG-tagged BGLF3 or BGLF3(T42A) as bait with one partner (BcRF1, BFRF2 or BVLF1) co-expressed in 2089 cells; anti-FLAG M2 agarose, 2 h, 4 C; lysis buffer 20 mM Tris-HCl pH 7.5, 150 mM NaCl, 1 mM EDTA, 1 mM EGTA, 1% Triton; eluted with 3X FLAG peptide; anti-Myc blot; ZEBRA co-transfected in the BcRF1 experiment

B1: BFRF2 (protein, UniProt P14347 1-591)
chain: MALFLARHTLSGTGAGCHGRGPAPDVSEVDLTLQALGERGFSRLLDLGLACLDLSYVEMREFVVWGRPPASEAAVASTPGSLFRSHSSAYWLSEVERPGGLVRWARSQTSPSSLTLAPHLGPSLLSLSVVTGGGCGAVAFCNAFFLAYFLVVRSVFPAFSDRIAAWICDRSPFCENTRAVARGYRGLVKRFLAFVFERSSYDPPLLRQNSRPVERCFAIKNYVPGLDSQSCVTVPSFSRWAQSHASELDPREIRDRVTPATAPSFVADHASALLASLQKKASDTPCGNPIQWMWYRLLVNSCLRSAHCLLPIPAVSEGGRKTGGGVGEELVGAGGPCLSRDVFVAIVSRNVLSCLLNVPAAGPRAYKCFRSHASRPVSGPDYPPLAVFCMDCGYCLNFGKQTGVGGRLNSFRPTLQFYPRDQKEKHVLTCHASGRVYCSNCGSAAVGCQRLAEPPSARSGWRPRIRAVLPHNAAYELDRGSRLLDAIIPCLGPDRTCMRPVVLRGVTVRQLLYLTLRTEARAVCSICQQRQAPEDARDEPHLFSSCLEVELPPGERCAGCRLYQTRYGTPAAQAHPPGEAGGGFSRQSPAS
With B1 the binding [1] was “binds” and the binding [2] was “binds”.
